Reference: patent US20210095028A1 (NANJING LEGEND BIOTECH, published 2021)
Changes are numbered by the printed parent chain. These are yes or no findings as the source states them, for the method shown. Some results given as binding are weak or reduced against the parent protein; the word gives no strength.

B1: 100C4E7D11 (antibody, V domains shown)
VH: EVMLVESGGGLVKPGGSLKLSCAASGFTFSFYTMSWVRQTPEKRLEWVATISSGGGSTYYSDSVKGRFTISRDNAKNNLYLQMTSLRSEDTALYYCSRSLPVDYWGQGTTLTVSS
VL: QIVLTQSPAIMSASLGERVTMTCTASSSVSSTYLHWYQQKPGSSPKLWIYSTSNLASGVPARFSGSGSGTSYSLTISSMEAEDAATYYCHLYHHSPYTFGGGTKLEIK
notes: Mouse monoclonal antibody; also called mouse anti-human TIGIT monoclonal antibody 100C4E7D11
B2: 100C4E7D11 chimeric (antibody, V domains shown)
VH: B1 VH
VL: B1 VL
notes: also called 100C4 Chimeric
B3: 92E9D4B4 (antibody, V domains shown)
VH: B1 VH with S53G, S57D, S61P, S63N, T84S, S97A, Y104F
VL: B1 VL with L47F, L55M, L91Y, H94R
notes: Mouse monoclonal antibody; also called mouse anti-human TIGIT monoclonal antibody 92E9D4B4
B4: 83G6H11C12 (antibody, V domains shown)
VH: B1 VH
VL: B1 VL with T32S
notes: Mouse monoclonal antibody; also called mouse anti-human TIGIT monoclonal antibody 83G6H11C12
B5: 64G1E9B4 (antibody, V domains shown)
VH: EVQLQQSGPELVKPGASVKISCKTSGYTFTEHVIHWVKQSHGKSLEWIGGFNPNHDGTIYNQIFRGKATLTVDKSSSTAYMELRSLTSEDSAVYFCTRAAKLLFAMDYWGQGTSVTVSS
VL: DIVMTQSHKFMSTSIGDRVSITCKASQHVSNAVVWYQQKPGQSPKLLIYSPSYRFTGVPDRFTGSGSGTDFTFTISSVQAEDLAVYYCQQHYSTPWTFGGGTKLEIK
notes: Mouse monoclonal antibody; also called mouse anti-human TIGIT monoclonal antibody 64G1E9B4
B6: 64G1E9B4 chimeric (antibody, V domains shown)
VH: B5 VH
VL: B5 VL
notes: also called 64G1 Chimeric
B7: 100C4E7D11VH1_VL1 (antibody, V domains shown)
VH: EVQLVESGGGLVKPGGSLRLSCAASGFTFSFYTMSWVRQAPGKGLEWVSTISSGGGSTYYSDSVKGRFTISRDNAKNSLYLQMNSLRAEDTAVYYCARSLPVDYWGQGTTVTVSS
VL: EIVLTQSPGTLSLSPGERATLSCTASSSVSSTYLHWYQQKPGQAPRLLIYSTSNLASGIPDRFSGSGSGTDFTLTISRLEPEDFAVYYCHLYHHSPYTFGGGTKVEIK
notes: Humanized antibody, variable domains fused with the constant region of human IgG1; also called 100C4VH1_VL1
B8: 128E3G7F5 (antibody, V domains shown)
VH: EVLLQQSGPELVKTGASVKISCKASGYSFTAYYMHWVKQSHGKSLEWIGYISCYNGATTYNQKFKGKATFTVDTSSTTAYMQFNSLTSEDSAVYYCARRVYYGYDEALVYWGQGTSVTVSS
VL: DIVMTQSPSSLSVSAGEKVTMTCKSSQSLLNSGNQKNYLAWYQQKPGQPPKLLIYGASTRGSGVPDRFTGSGSGTDFTLTISSVQAEDLAVYYCQNDHSYPYTFGGGTKLEIK
notes: Mouse monoclonal antibody; also called mouse anti-human TIGIT monoclonal antibody 128E3G7F5
B9: 64G1E9B4VH1_VL1.M1 (antibody, human IgG1, V domains shown)
VH: EVQLVQSGAEVKKPGSSVKVSCKASGYTFTEHVIHWVRQAPGQGLEWMGGFNPNHDGTIYNQIFRGRVTITADKSTSTAYMELSSLRSEDTAVYYCARAAKLLFAMDYWGQGTTVTVSS
VL: DIQMTQSPSSLSASVGDRVTITCRASQHVSNAVVWYQQKPGKAPKLLIYSPSYRFTGVPSRFSGSGSGTDFTLTISSLQPEDFATYYCQQHYSTPWTFGGGTKVEIK
notes: Humanized antibody, variable domains fused with the constant region of human IgG1; also called 64G1VH1_VL1.M1
B10: 64G1E9B4VH1.M1_VL1.M1 (antibody, human IgG1, V domains shown)
VH: B9 VH with D56G
VL: B9 VL
notes: Humanized antibody, variable domains fused with the constant region of human IgG1; also called 64G1VH1.M1_VL1.M1
B11: 139E2C2D2 (antibody, V domains shown)
VH: EVQLVESGGDLVKPGGSLKLSCAASGFTFSSYGMSWVRQTPDKRLEWVAIISSGGNYTYYPDSVKGRFTISRDNAKNTLYLQMSSLKSEDTAMYYCARQIHYFFAMDYWGQGTSVTVSS
VL: DIQMTQSPASLSVSVGETVTITCRASENIYSNLAWYQQKQGKSPQLLVYAATNLADGAPSRFSGSRSGTQYSLKINSLQSEDFGSYYCQHFWGTAYTFGGGTKLEIK
notes: Mouse monoclonal antibody; also called mouse anti-human TIGIT monoclonal antibody 139E2C2D2
B12: 121C2F10B5 (antibody, V domains shown)
VH: B11 VH with S31T, I50T, N56S, I100V, F104Y
VL: B11 VL with L46V, A58V, G93D, T94N
notes: Mouse monoclonal antibody; also called mouse anti-human TIGIT monoclonal antibody 121C2F10B5
B13: 104G12E12G2 (antibody, V domains shown)
VH: EVQLQQSGPELVKPGASVKISCKASGYSFTGSYIHWVKQNHVKTLEWIGRINPHNGPTSYNQNFKGKASLTVDLSSSTAYMEVHSLTSEDSAVYYCVRYDGYYGGALDYWGQGTSVTVSS
VL: DIQMTQSPSSLSASLGERVSLTCRASQEISGYLSWLQQKPDGTIKRLIYAASTLDSGVPKRFSGSRSGSDYSLTISSLESEDFADYYCLQYASYPYTFGGGTKLEIK
notes: Mouse monoclonal antibody; also called mouse anti-human TIGIT monoclonal antibody 104G12E12G2

Target: cynomolgus TIGIT over-expressed on CHO-K1 cells (cynomolgus)
Assay: FACS, CHO-K1 cells over-expressing cynomolgus TIGIT

| binding | Binder |
| --- | --- |
| binds | B1 |
| binds | B2 |
| binds | B3 |
| binds | B4 |
| binds | B5 |
| binds | B6 |
| binds | B7 |
| binds | B8 |
| binds | B9 |
| binds | B10 |
| binds | B11 |
| binds | B12 |
| binds | B13 |
